Laboratory results: PubChem BioAssay AID1259405 (NCATS, 2018)

- Purpose: 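Mouse-designed siRNAs used to find CHO productivity engineering targets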 (primary screen)
- System: Chinese hamster CHO-K1 ovary cells with stable secreted eGFP expression
- Reagent: single siRNA against mouse genes, 0.8 pmol siRNA per well (2 µl of 400 nM stock)
- Time to read-out: 3 days
- Measurement: 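Per-well intracellular GFP measured by laser scanning cytometry, plus viability from ATP luminescence, each relative to plate median of non-targeting control wells, in %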
- Direction: GFP, % of control: higher = more GFP per well, higher productivity; viability (ATP), % of control: higher = more viable cells (more ATP)
- Call rule: 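a knock-down is called active if GFP reaches 120% or more of non-targeting control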
This is a random part of about 50,000 reagents. Of all reagents, about 4,000 (8%) were called active. 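Mouse siRNA library applied to hamster cells; one well for each siRNA.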 The numbers tell different reagents against one gene apart.

Against Samt4 (GeneID 75185) #1, the entry reads GFP, % of control 80.4; viability (ATP), % of control 120; inactive. Depletion of Samt4 (GeneID 75185) #2 resulted in: GFP, % of control 141; viability (ATP), % of control 125; active. Knock-down of Samt4 (GeneID 75185) #3 gave: GFP, % of control 69.1; viability (ATP), % of control 51.5; inactive. Knock-down of Etfbkmt (GeneID 320204) #1 came out at: GFP, % of control 52.6; viability (ATP), % of control 38.3; inactive. For Etfbkmt (GeneID 320204) #2 the deposit lists GFP, % of control 59.4; viability (ATP), % of control 74.4; inactive. After knock-down of Etfbkmt (GeneID 320204) #3, the record shows GFP, % of control 50.4; viability (ATP), % of control 53.2; inactive.

After knock-down of Mapk8 (GeneID 26419) #1 the results were GFP, % of control 97.6; viability (ATP), % of control 100; inactive. With knock-down of Mapk8 (GeneID 26419) #2 the results were GFP, % of control 61.7; viability (ATP), % of control 55.9; inactive. After knock-down of Mapk8 (GeneID 26419) #3, the screen gave GFP, % of control 97; viability (ATP), % of control 98.1; inactive. Gm5154 (GeneID 381818) #1 scored GFP, % of control 83.1; viability (ATP), % of control 75.7; inactive. With knock-down of Gm5154 (GeneID 381818) #2, the screen gave GFP, % of control 89.1; viability (ATP), % of control 71.5; inactive. Against Gm5154 (GeneID 381818) #3 the deposit lists GFP, % of control 73; viability (ATP), % of control 56.5; inactive.

For Mtmr9 (GeneID 210376) #1, the values are GFP, % of control 108; viability (ATP), % of control 78.7; inactive. Mtmr9 (GeneID 210376) #2 gave GFP, % of control 49.9; viability (ATP), % of control 52.2; inactive. Mtmr9 (GeneID 210376) #3 showed GFP, % of control 59.9; viability (ATP), % of control 88.9; inactive. Usp37 (GeneID 319651) #1 scored GFP, % of control 97.7; viability (ATP), % of control 99.7; inactive. Usp37 (GeneID 319651) #2 scored GFP, % of control 48.7; viability (ATP), % of control 50; inactive. After knock-down of Usp37 (GeneID 319651) #3 the results were GFP, % of control 79; viability (ATP), % of control 72.5; inactive.

For Dtx3 (GeneID 80904) #1, the values are GFP, % of control 88.2; viability (ATP), % of control 73; inactive. Against Dtx3 (GeneID 80904) #2, the values are GFP, % of control 78.9; viability (ATP), % of control 97.7; inactive. Depletion of Vmn1r74 (GeneID 171240) #1 resulted in: GFP, % of control 69.3; viability (ATP), % of control 40.1; inactive. Against Vmn1r74 (GeneID 171240) #2, the entry reads GFP, % of control 78.5; viability (ATP), % of control 90.6; inactive. After knock-down of Vmn1r74 (GeneID 171240) #3 the results were GFP, % of control 49.2; viability (ATP), % of control 65.7; inactive.

Records above marked active:
Samt4 (GeneID 75185) #2 → GFP, % of control: 141; viability (ATP), % of control: 125; call: active

The list goes on:
Knock-down of Ccer1 (GeneID 66716) #1 gave: GFP, % of control 89.9; viability (ATP), % of control 88.4; inactive. After knock-down of Ccer1 (GeneID 66716) #2, the record shows GFP, % of control 80.3; viability (ATP), % of control 50.4; inactive. Knock-down of Ccer1 (GeneID 66716) #3 came out at: GFP, % of control 92.6; viability (ATP), % of control 71.2; inactive. Or6z6 (GeneID 258383) #1 showed GFP, % of control 67; viability (ATP), % of control 69.2; inactive. Against Or6z6 (GeneID 258383) #2 the deposit lists GFP, % of control 54.3; viability (ATP), % of control 79.4; inactive. With knock-down of Or6z6 (GeneID 258383) #3 the results were GFP, % of control 50.9; viability (ATP), % of control 85.3; inactive.

Knock-down of Cnot8 (GeneID 69125) #1 came out at: GFP, % of control 76.8; viability (ATP), % of control 69; inactive. Against Cnot8 (GeneID 69125) #2, the values are GFP, % of control 100; viability (ATP), % of control 85; inactive. With knock-down of Dap (GeneID 223453) #1 the results were GFP, % of control 90.8; viability (ATP), % of control 65.3; inactive. With knock-down of Dap (GeneID 223453) #2 the results were GFP, % of control 75.8; viability (ATP), % of control 87.7; inactive. With knock-down of Dap (GeneID 223453) #3, the record shows GFP, % of control 69.3; viability (ATP), % of control 49.3; inactive. Depletion of Ccdc39 (GeneID 51938) #1 resulted in: GFP, % of control 97; viability (ATP), % of control 92; inactive.

Knock-down of Ccdc39 (GeneID 51938) #2 gave: GFP, % of control 85.5; viability (ATP), % of control 82.7; inactive. Ccdc39 (GeneID 51938) #3 scored GFP, % of control 72.7; viability (ATP), % of control 59.7; inactive. With knock-down of Gypa (GeneID 14934) #1 the results were GFP, % of control 60.8; viability (ATP), % of control 76.2; inactive. Depletion of Gypa (GeneID 14934) #2 gave: GFP, % of control 90.2; viability (ATP), % of control 78.2; inactive. Gypa (GeneID 14934) #3 gave GFP, % of control 101; viability (ATP), % of control 82.8; inactive.
